Measurements published in the supplement of paper PMC10849652.
Some of the results follow.

Sequences of proteins named here, by UniProt entry; tags and fusion partners are left off. A change or cut given only in a name is not applied to a line headed by its entry.
UniProt Q7Z392: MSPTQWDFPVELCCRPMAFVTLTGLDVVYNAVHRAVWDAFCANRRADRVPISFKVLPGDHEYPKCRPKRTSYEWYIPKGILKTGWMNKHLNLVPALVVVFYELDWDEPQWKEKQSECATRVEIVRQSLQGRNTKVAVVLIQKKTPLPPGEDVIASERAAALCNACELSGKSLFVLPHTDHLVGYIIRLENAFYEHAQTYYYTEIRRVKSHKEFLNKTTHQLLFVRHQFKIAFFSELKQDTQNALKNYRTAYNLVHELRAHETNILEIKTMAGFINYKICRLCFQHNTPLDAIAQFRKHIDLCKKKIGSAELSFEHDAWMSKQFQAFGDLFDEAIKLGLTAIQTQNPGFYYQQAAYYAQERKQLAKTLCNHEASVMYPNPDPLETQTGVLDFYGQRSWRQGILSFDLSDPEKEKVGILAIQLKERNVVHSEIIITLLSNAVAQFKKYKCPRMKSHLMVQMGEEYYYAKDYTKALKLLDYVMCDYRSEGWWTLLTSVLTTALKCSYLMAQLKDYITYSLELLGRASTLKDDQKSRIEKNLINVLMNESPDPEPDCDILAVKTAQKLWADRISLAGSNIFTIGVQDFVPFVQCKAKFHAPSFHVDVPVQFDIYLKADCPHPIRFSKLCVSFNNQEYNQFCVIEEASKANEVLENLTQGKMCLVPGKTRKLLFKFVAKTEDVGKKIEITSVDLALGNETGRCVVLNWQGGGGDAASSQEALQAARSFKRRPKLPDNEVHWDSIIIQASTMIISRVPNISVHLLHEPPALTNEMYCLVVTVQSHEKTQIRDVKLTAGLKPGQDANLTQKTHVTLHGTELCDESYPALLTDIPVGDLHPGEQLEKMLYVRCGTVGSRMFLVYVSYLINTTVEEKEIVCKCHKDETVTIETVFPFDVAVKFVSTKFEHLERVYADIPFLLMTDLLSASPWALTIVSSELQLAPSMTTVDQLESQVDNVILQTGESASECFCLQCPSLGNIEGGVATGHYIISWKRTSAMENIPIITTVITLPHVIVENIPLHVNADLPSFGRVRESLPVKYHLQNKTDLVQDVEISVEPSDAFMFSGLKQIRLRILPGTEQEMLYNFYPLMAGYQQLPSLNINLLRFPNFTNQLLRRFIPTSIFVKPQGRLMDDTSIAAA
UniProt Q99816: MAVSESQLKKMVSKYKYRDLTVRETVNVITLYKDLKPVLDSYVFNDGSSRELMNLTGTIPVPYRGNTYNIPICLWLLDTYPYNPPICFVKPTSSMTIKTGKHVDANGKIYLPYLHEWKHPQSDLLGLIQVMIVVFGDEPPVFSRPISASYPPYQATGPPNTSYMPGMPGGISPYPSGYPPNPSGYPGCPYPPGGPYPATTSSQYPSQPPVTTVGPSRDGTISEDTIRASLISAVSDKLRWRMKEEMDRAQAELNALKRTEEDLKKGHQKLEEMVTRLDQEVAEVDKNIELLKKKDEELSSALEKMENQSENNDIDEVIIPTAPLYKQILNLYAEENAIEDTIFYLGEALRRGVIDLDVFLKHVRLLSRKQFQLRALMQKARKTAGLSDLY
UniProt Q15642: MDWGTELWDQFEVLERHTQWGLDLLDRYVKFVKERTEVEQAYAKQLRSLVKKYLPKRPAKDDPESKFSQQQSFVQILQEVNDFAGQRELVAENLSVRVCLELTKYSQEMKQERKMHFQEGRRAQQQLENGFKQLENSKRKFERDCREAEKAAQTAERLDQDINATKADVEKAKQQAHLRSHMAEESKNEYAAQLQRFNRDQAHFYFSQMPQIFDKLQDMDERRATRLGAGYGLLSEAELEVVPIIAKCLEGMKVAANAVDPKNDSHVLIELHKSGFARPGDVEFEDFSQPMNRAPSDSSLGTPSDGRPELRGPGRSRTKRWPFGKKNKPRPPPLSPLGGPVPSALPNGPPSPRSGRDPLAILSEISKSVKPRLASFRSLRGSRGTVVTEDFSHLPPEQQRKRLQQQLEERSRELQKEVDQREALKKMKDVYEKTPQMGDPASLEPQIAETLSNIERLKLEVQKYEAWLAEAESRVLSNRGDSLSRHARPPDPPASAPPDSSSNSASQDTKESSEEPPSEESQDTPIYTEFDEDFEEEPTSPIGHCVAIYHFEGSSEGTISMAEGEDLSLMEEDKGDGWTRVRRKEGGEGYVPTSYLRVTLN
UniProt Q6NXR4: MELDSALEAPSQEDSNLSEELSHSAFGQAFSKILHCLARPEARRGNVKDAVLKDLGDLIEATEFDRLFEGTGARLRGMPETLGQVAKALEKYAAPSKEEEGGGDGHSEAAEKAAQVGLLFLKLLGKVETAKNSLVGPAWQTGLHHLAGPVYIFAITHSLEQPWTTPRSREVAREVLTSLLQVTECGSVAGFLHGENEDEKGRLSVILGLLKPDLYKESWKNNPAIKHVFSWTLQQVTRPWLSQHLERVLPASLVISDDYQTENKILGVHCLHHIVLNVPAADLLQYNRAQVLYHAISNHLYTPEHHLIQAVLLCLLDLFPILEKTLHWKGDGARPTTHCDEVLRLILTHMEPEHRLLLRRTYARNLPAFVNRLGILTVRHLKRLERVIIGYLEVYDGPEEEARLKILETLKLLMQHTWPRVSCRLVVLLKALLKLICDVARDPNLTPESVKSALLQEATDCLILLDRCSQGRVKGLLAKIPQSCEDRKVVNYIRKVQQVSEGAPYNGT
UniProt Q9Y4K3: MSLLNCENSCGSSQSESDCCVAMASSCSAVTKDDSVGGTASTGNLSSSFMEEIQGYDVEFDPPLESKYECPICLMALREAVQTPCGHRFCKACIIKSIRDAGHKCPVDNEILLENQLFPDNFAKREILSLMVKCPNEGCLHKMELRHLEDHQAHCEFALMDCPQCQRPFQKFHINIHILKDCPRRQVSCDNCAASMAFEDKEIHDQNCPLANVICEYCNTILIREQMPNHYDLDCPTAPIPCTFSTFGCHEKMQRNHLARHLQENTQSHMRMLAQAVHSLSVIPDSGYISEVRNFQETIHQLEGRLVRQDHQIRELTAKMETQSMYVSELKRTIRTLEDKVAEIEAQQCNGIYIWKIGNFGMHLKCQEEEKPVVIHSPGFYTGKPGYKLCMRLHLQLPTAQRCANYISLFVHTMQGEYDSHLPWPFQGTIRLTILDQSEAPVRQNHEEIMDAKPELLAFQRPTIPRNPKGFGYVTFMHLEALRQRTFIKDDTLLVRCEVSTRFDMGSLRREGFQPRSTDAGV
UniProt Q9Y5R8, whole entry, looked up: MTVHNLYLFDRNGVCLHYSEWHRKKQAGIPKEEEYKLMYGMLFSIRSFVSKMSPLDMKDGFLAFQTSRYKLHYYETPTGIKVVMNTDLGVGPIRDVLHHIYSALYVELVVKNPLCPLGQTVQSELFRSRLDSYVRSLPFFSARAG
UniProt Q9H0U9: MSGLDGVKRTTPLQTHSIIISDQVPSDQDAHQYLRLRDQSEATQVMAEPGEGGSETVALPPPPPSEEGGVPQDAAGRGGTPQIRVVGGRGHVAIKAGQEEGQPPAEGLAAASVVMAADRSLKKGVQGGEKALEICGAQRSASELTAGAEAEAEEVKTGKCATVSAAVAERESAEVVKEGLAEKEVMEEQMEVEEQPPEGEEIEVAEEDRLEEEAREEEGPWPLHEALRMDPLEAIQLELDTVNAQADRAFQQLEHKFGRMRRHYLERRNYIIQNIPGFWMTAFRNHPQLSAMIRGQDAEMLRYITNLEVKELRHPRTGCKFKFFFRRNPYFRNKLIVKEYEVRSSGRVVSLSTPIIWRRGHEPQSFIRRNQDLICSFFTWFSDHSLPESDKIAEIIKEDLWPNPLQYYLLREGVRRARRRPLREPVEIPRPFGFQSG
UniProt Q8TEL6: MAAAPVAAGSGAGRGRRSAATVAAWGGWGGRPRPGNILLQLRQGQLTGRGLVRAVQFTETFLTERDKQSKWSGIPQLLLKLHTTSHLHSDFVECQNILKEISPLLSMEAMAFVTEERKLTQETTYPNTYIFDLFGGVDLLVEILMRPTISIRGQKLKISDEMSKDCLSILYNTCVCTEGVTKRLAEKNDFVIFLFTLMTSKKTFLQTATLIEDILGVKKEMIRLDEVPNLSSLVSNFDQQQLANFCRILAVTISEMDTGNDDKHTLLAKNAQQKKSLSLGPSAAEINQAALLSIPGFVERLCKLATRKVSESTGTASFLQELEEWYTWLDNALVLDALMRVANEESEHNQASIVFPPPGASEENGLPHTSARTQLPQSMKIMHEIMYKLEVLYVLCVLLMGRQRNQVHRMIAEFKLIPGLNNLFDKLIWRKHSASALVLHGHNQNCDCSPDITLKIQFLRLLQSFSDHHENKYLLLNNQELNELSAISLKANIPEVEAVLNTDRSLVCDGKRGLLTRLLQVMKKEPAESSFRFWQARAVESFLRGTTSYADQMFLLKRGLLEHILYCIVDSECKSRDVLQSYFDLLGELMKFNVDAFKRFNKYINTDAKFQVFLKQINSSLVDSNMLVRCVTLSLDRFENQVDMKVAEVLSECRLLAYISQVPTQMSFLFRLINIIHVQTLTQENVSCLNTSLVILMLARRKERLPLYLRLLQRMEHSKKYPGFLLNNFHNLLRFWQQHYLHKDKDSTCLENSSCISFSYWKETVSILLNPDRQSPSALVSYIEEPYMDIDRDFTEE
UniProt Q12815: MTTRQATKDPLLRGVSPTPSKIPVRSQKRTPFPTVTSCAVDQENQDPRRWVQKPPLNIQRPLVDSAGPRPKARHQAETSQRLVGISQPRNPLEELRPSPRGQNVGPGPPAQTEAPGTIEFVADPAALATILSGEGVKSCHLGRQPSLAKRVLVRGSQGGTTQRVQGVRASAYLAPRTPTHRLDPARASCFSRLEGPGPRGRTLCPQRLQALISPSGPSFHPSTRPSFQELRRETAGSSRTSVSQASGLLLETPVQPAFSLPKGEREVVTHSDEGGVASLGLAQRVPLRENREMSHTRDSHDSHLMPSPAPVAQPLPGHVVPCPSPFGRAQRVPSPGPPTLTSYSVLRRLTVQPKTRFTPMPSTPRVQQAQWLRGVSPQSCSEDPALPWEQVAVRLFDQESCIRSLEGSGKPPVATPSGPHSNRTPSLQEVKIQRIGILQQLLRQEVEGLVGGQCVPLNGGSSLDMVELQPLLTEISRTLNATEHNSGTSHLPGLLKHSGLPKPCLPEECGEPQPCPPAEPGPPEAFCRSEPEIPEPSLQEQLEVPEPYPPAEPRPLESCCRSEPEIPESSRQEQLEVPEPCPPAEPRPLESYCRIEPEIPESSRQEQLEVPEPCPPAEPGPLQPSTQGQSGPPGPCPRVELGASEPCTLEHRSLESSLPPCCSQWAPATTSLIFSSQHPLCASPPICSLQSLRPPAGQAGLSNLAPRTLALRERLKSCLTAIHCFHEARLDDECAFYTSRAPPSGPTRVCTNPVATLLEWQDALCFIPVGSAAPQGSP
UniProt Q8IZ69: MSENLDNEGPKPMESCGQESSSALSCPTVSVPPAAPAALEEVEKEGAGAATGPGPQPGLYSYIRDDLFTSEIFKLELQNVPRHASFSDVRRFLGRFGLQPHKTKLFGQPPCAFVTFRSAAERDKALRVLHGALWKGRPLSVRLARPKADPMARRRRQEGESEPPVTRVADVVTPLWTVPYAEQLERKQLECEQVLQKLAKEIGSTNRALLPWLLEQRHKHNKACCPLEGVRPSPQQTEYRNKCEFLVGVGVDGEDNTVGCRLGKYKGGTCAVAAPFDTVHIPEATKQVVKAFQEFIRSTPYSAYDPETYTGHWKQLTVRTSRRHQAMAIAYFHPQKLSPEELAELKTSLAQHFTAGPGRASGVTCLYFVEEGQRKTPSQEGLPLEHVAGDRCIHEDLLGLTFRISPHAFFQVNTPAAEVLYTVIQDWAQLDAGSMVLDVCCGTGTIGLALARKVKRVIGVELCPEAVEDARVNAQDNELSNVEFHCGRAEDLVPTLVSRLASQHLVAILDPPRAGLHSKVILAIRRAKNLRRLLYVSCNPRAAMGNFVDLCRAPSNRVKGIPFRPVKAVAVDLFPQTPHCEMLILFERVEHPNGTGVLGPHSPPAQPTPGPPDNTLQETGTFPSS
UniProt Q9BQ61: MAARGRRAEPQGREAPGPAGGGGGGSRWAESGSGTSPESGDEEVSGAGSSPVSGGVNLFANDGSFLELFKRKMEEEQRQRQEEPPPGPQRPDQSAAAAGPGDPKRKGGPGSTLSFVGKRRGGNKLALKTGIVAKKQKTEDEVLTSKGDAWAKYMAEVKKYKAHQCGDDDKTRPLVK
UniProt Q5R3I4: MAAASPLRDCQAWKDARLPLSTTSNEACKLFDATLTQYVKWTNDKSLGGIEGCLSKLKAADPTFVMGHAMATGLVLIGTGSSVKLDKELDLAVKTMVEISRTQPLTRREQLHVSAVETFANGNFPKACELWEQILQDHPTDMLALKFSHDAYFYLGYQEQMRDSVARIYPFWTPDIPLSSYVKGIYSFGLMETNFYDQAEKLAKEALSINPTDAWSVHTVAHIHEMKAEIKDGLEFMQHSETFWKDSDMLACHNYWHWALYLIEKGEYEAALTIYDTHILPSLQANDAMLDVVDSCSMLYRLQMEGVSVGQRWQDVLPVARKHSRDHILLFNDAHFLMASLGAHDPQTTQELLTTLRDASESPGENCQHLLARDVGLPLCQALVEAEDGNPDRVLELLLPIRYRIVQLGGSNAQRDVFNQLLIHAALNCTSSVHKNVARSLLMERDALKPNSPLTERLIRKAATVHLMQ

Columns and labels:
Experiment in all cases: log2 fold change, soluble protein after heating vs DMSO (PISA); higher = thermal stabilisation; K562 lysate, 10 uM; active = over 0.2 and 3.5 SD of the protein, either way, in both replicates (recomputed)
nilotinib = compound: Cc1cn(-c2cc(NC(=O)c3ccc(C)c(Nc4nccc(-c5cccnc5)n4)c3)cc(C(F)(F)F)c2)cn1 [nilotinib]
Procedure, shortened: (§1)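 Pellets of K562 cells were dounce-homogenised in PBS pH 7.4 with 1 mM MgCl2, and the crude extract was held at 1 mg/mL protein for a 30 min treatment with 10 μM compound. Aliquots were heated for 3 min over 48°C-58°C and pooled before NP-40 was added to 0.5% at 4°C. The supernatant from 21,000xg for 90 min was quantified by TMTpro 16plex LC-MS/MS with channel sums equalised. Values are reported from duplicates as log-two fold change in thermal stability relative to solvent controls.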

[1] = compound: Cc1nc(Nc2n[nH]c3c2CN(C(=O)N[C@H](CN(C)C)c2ccccc2)C3(C)C)c2sccc2n1
Procedure, shortened: as §1

dasatinib = compound: Cc1nc(Nc2ncc(C(=O)Nc3c(C)cccc3Cl)s2)cc(N2CCN(CCO)CC2)n1 [dasatinib]
Procedure, shortened: as §1

[2] = compound: Cc1ncc(-c2ccnc(Nc3ccc(S(C)(=O)=O)cc3)n2)n1C(C)C
Procedure, shortened: as §1

[3] = compound: Cn1cc(-c2ccc3c(c2)CCN3C(=O)Cc2cccc(C(F)(F)F)c2)c2c(N)ncnc21
Procedure, shortened: as §1

quisinostat = compound: Cn1cc(CNCC2CCN(c3ncc(C(=O)NO)cn3)CC2)c2ccccc21 [quisinostat]
Procedure, shortened: as §1

tipifarnib = compound: Cn1cncc1[C@@](N)(c1ccc(Cl)cc1)c1ccc2c(c1)c(-c1cccc(Cl)c1)cc(=O)n2C [tipifarnib]
Procedure, shortened: as §1

[4] = compound: NC(=O)Nc1cc(-c2cccc(F)c2)sc1C(=O)N[C@H]1CCCNC1
Procedure, shortened: as §1

[5] = compound: NC(=O)c1cnc(N[C@@H]2CCCC[C@@H]2N)nc1Nc1cccc(-n2nccn2)c1
Procedure, shortened: as §1

[6] = compound: NC1(c2ccc(-c3nc4ccn5c(=O)[nH]nc5c4cc3-c3ccccc3)cc2)CCC1
Procedure, shortened: as §1

[7] = compound: NCC(=O)Nc1ccc(-n2nc(C(F)(F)F)cc2-c2ccc3c(ccc4ccccc43)c2)cc1
Procedure, shortened: as §1

vorinostat = compound: O=C(CCCCCCC(=O)Nc1ccccc1)NO [vorinostat]
Procedure, shortened: as §1

silmitasertib = compound: O=C(O)c1ccc2c(c1)nc(Nc1cccc(Cl)c1)c1ccncc12 [silmitasertib]
Procedure, shortened: as §1

[8] = compound: O=C1NC(=O)C(c2cnc3ccccn23)=C1c1cn2c3c(cc(F)cc13)CN(C(=O)N1CCCCC1)CC2
Procedure, shortened: as §1

entospletinib = compound: c1cn2cc(-c3ccc4cn[nH]c4c3)nc(Nc3ccc(N4CCOCC4)cc3)c2n1 [entospletinib]
Procedure, shortened: as §1

Target | log2 fold change (nilotinib) | log2 fold change [1] | log2 fold change (dasatinib) | log2 fold change [2] | log2 fold change [3] | log2 fold change (quisinostat) | log2 fold change (tipifarnib) | log2 fold change [4] | log2 fold change [5] | log2 fold change [6] | log2 fold change [7] | log2 fold change (vorinostat) | log2 fold change (silmitasertib) | log2 fold change [8] | log2 fold change (entospletinib)
TRIM32 (UniProt Q13049) | inactive: 0.019 | inactive: 0.036 | inactive: -0.048 | inactive: -0.015 | inactive: 0.057 | inactive: 0.027 | inactive: -0.063 | inactive: -0.018 | inactive: -0.008 | inactive: -0.069 | inactive: 0.002 | inactive: -0.045 | inactive: 0.011 | inactive: -0.004 | inactive: -0.061
TRAPPC11 (UniProt Q7Z392) | inactive: -0.01 | inactive: 0.054 | inactive: -0.028 | inactive: 0.017 | inactive: 0.028 | inactive: -0.037 | inactive: -0.017 | inactive: 0.02 | inactive: 0.01 | inactive: -0.001 | inactive: -0.017 | inactive: -0.145 | inactive: 0.027 | inactive: 0.023 | inactive: -0.014
TRIP11 (UniProt Q15643) | inactive: 0.042 | inactive: -0.019 | inactive: 0.011 | inactive: -0.03 | inactive: 0.001 | inactive: -0.027 | inactive: -0.107 | inactive: 0.055 | inactive: 0.007 | inactive: 0.001 | inactive: -0.02 | inactive: 0.073 | inactive: -0.029 | inactive: -0.032 | inactive: -0.013
TSTD2 (UniProt Q5T7W7) | inactive: -0.01 | inactive: -0.03 | inactive: -0.162 | inactive: 0.01 | inactive: -0.085 | – | inactive: 0.127 | – | inactive: 0.03 | inactive: 0.009 | inactive: -0.086 | inactive: -0.263 | inactive: 0.083 | – | –
TSG101 (UniProt Q99816) | inactive: 0.013 | inactive: -0.018 | inactive: -0.015 | inactive: 0.011 | inactive: 0.011 | inactive: 0.037 | inactive: -0.014 | inactive: -0.018 | inactive: 0.032 | inactive: 0.026 | inactive: 0.037 | inactive: -0.092 | inactive: 0.002 | inactive: -0.013 | inactive: -0.022
TRIP10 (UniProt Q15642) | inactive: 0.024 | inactive: 0 | inactive: -0.037 | inactive: 0.001 | inactive: -0.014 | inactive: -0.081 | inactive: -0.018 | inactive: -0.01 | inactive: 0.017 | inactive: -0.003 | inactive: 0.012 | inactive: 0.013 | inactive: 0.017 | inactive: -0.014 | inactive: 0.042
TRAPPC5 (UniProt Q8IUR0) | inactive: -0.035 | inactive: 0.008 | inactive: -0.049 | inactive: -0.056 | inactive: 0.05 | inactive: 0.01 | inactive: 0.01 | inactive: 0.022 | inactive: 0.033 | inactive: -0.001 | inactive: 0.004 | inactive: -0.123 | inactive: 0.063 | inactive: -0.072 | inactive: 0.019
TTI2 (UniProt Q6NXR4) | inactive: 0.022 | inactive: 0.029 | inactive: -0.051 | inactive: 0.044 | inactive: 0.01 | inactive: -0.009 | inactive: -0.018 | inactive: -0.003 | inactive: 0.049 | inactive: -0.013 | inactive: 0.05 | active: -0.303 | inactive: 0.015 | inactive: 0.034 | inactive: 0.005
TRAF6 (UniProt Q9Y4K3) | inactive: 0.021 | inactive: 0.021 | inactive: 0.004 | inactive: -0.026 | inactive: 0.022 | inactive: 0.004 | inactive: -0.017 | inactive: 0.026 | inactive: -0.03 | inactive: 0.023 | inactive: 0.047 | inactive: 0.054 | inactive: -0.018 | inactive: -0.026 | inactive: -0.043
TRAPPC1 (UniProt Q9Y5R8) | inactive: 0.102 | inactive: 0.019 | inactive: -0.017 | inactive: 0.025 | inactive: 0.031 | inactive: -0.074 | inactive: 0.086 | inactive: 0.007 | inactive: 0.067 | inactive: -0.003 | inactive: -0.016 | inactive: 0.013 | inactive: 0.047 | inactive: 0.016 | inactive: 0.048
TSPYL1 (UniProt Q9H0U9) | inactive: -0.053 | inactive: -0.003 | inactive: 0.04 | inactive: -0.007 | inactive: 0.077 | inactive: 0 | inactive: -0.048 | inactive: 0.06 | inactive: 0.154 | inactive: -0.034 | – | inactive: -0.079 | inactive: 0.023 | inactive: 0.034 | –
TRPC4AP (UniProt Q8TEL6) | inactive: 0.115 | inactive: -0.015 | inactive: -0.021 | inactive: -0.004 | inactive: 0.078 | inactive: -0.03 | inactive: 0.016 | inactive: 0 | inactive: -0.037 | inactive: 0.002 | inactive: 0.082 | inactive: -0.11 | inactive: 0.011 | inactive: 0.011 | inactive: -0.021
TRAF7 (UniProt Q6Q0C0) | inactive: 0.16 | inactive: 0.027 | inactive: -0.005 | inactive: 0.154 | inactive: 0.163 | inactive: -0.035 | inactive: -0.1 | inactive: -0.033 | – | – | inactive: 0.052 | – | – | inactive: 0.059 | inactive: 0.058
TROAP (UniProt Q12815) | inactive: -0.041 | inactive: 0.023 | inactive: -0.071 | inactive: 0.037 | inactive: 0.043 | inactive: -0.096 | inactive: -0.005 | inactive: 0.007 | inactive: 0.031 | inactive: -0.018 | inactive: 0.003 | active: -0.382 | inactive: 0.003 | inactive: 0.014 | inactive: -0.057
TRIT1 (UniProt Q9H3H1) | inactive: 0.047 | inactive: -0.062 | inactive: -0.059 | inactive: 0.005 | inactive: 0.052 | inactive: 0.065 | inactive: 0.016 | inactive: 0.062 | inactive: 0.052 | inactive: 0.034 | inactive: 0.05 | inactive: -0.14 | inactive: -0.002 | inactive: -0.108 | inactive: 0.04
TRMT2A (UniProt Q8IZ69) | inactive: -0.034 | inactive: -0.011 | inactive: -0.018 | inactive: -0.011 | inactive: 0.013 | inactive: -0.023 | inactive: -0.007 | inactive: 0.016 | inactive: -0.002 | inactive: -0.012 | inactive: -0.012 | active: -0.366 | inactive: 0.034 | inactive: -0.007 | inactive: 0.002
TRIR (UniProt Q9BQ61) | inactive: -0.023 | inactive: 0.025 | inactive: 0.016 | inactive: -0.008 | inactive: -0.034 | inactive: -0.039 | inactive: -0.005 | inactive: -0.046 | inactive: -0.034 | inactive: 0.002 | inactive: -0.021 | inactive: 0.161 | inactive: -0.013 | inactive: 0.004 | inactive: 0.028
TSEN2 (UniProt Q8NCE0) | inactive: -0.003 | inactive: -0.035 | inactive: -0.052 | inactive: 0.014 | inactive: 0.029 | inactive: -0.147 | inactive: 0.024 | inactive: 0.048 | inactive: 0.001 | inactive: -0.066 | inactive: -0.022 | inactive: -0.046 | inactive: -0.053 | inactive: -0.02 | inactive: 0.047
TTC38 (UniProt Q5R3I4) | inactive: 0.02 | inactive: 0.016 | inactive: 0.029 | inactive: 0.059 | inactive: -0.003 | active: 0.293 | inactive: 0.026 | inactive: -0.036 | inactive: 0.015 | inactive: 0.029 | inactive: 0.017 | inactive: -0.044 | inactive: -0.014 | inactive: -0.022 | inactive: 0.029
TSPYL2 (UniProt Q9H2G4) | inactive: 0.024 | inactive: 0.015 | inactive: -0.076 | inactive: -0.009 | inactive: -0.038 | inactive: 0.142 | inactive: -0.038 | inactive: 0.047 | – | inactive: 0 | – | inactive: 0.014 | inactive: 0.02 | inactive: -0.125 | inactive: -0.12

Two successive entries already listed, quoted:
Target | log2 fold change (nilotinib) | log2 fold change [1] | log2 fold change (dasatinib) | log2 fold change [2] | log2 fold change [3] | log2 fold change (quisinostat) | log2 fold change (tipifarnib) | log2 fold change [4] | log2 fold change [5] | log2 fold change [6] | log2 fold change [7] | log2 fold change (vorinostat) | log2 fold change (silmitasertib) | log2 fold change [8] | log2 fold change (entospletinib)
TRIM32 (UniProt Q13049) | inactive: 0.019 | inactive: 0.036 | inactive: -0.048 | inactive: -0.015 | inactive: 0.057 | inactive: 0.027 | inactive: -0.063 | inactive: -0.018 | inactive: -0.008 | inactive: -0.069 | inactive: 0.002 | inactive: -0.045 | inactive: 0.011 | inactive: -0.004 | inactive: -0.061
TRAPPC11 (UniProt Q7Z392) | inactive: -0.01 | inactive: 0.054 | inactive: -0.028 | inactive: 0.017 | inactive: 0.028 | inactive: -0.037 | inactive: -0.017 | inactive: 0.02 | inactive: 0.01 | inactive: -0.001 | inactive: -0.017 | inactive: -0.145 | inactive: 0.027 | inactive: 0.023 | inactive: -0.014
